From the supplement of paper PMC5412046

Experiments:
SB.mhdgc-1 [1] = experiment: AC50 for growth inhibition (viability) (log10 M); higher = less potent; conditions: SB.mhdgc-1 (hereditary c.1380delA CDH1 gastric cancer)
In short: (§1)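 Values are log half-maximal activity concentrations from four-parameter fits of DMSO-normalised viability, restricted to high-quality curve classes. Patient-derived gastric cancer cells, hereditary or sporadic, were plated at 500 cells per 1536 well in 5 μL medium and given 23 nL compound in DMSO by pintool across 11 threefold dilutions, the top final concentration being 46 μM. Viability was read by ViewLux luminescence after 48 h and a 30 min CellTiter-Glo step at room temperature.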

SB.msgc-1 [2] = experiment: as above; conditions: SB.msgc-1 (sporadic gastric cancer)
In short: as §1

SB.mhdgc-1 [3] = experiment: area under the dose-response curve of % viability (trapezoidal, 11 doses) (% viability x log10 concentration); higher = less cytotoxic; conditions: SB.mhdgc-1 (hereditary c.1380delA CDH1 gastric cancer)
In short: (§2)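 The measure is viability normalised to DMSO, given as trapezoidal area under the curve or at the highest concentration. Patient-derived gastric cancer cells, hereditary or sporadic, were exposed for 48 h to compound at 11 threefold-diluted concentrations, each compound's top concentration being recorded. Luminescence was read on a ViewLux after 30 min with CellTiter-Glo at room temperature.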

SB.msgc-1 [4] = experiment: as above; conditions: SB.msgc-1 (sporadic gastric cancer)
In short: as §2

SB.mhdgc-1 [5] = experiment: viability at highest tested concentration (MAXR) relative to DMSO; higher = less cytotoxic; conditions: SB.mhdgc-1 (hereditary c.1380delA CDH1 gastric cancer)
In short: as §2

SB.msgc-1 [6] = experiment: as above; conditions: SB.msgc-1 (sporadic gastric cancer)
In short: as §2

| SMILES | AC50 for growth inhibition (log10 M) (SB.mhdgc-1 [1]) | AC50 for growth inhibition (log10 M) (SB.msgc-1 [2]) | area under the dose-response curve (SB.mhdgc-1 [3]) | area under the dose-response curve (SB.msgc-1 [4]) | viability (SB.mhdgc-1 [5]) [%] | viability (SB.msgc-1 [6]) [%] |
| --- | --- | --- | --- | --- | --- | --- |
| CC1=C(C=CC=C1)N2C(=O)C3=C(C=CC=C3C)\N=C2\C[N]4N=C(C5=CC(=CC=C5)O)C6=C(N)N=CN=C46 [PIK-294] | -5.53 | -7.03 |  |  |  |  |
| CC1=C(C=CC=C1)N2C(=O)C3=C(C=CC=C3C)\N=C2\C[N]4N=C(C5=CC(=CC=C5)O)C6=C(N)N=CN=C46 [PIK-294] (top concentration 46.0829 µM) |  |  | 370 | 307 | 21.1 | 23 |
| COC(=O)[C@H](CCCNC(=N)N)N[S+](=O)([O-])c1ccc(C)cc1 [TAME] (top concentration 46.0829 µM) |  |  | 492 | 532 | 92.5 | 102 |
